The other results are listed elsewhere or left out.
Experiments:
Experiment in all cases: glycan array binding signal (z-score within array); higher = stronger binding
Settings in all cases: glycan notation: IUPAC condensed, linker removed
[1] = target: Gal(b1-4)GlcNAc(b1-6)[Gal(b1-3)]GalNAc
Summary of the method: (§1)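 From the Consortium for Functional Glycomics database, 3228 arrays were curated, keeping only those whose protein sequence was available. Binding is given as a within-array Z-score averaged across arrays sharing a protein sequence and across linkers. Negative Z-scores can be read as non-binding.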

[2] = target: Gal(b1-4)GlcNAc(b1-6)[Gal(b1-4)GlcNAc(b1-3)]GalNAc
Summary of the method: as §1

Gal(b1-4)GlcNAc6P = target: Gal(b1-4)GlcNAc6P
Summary of the method: as §1

Gal(b1-6)Gal = target: Gal(b1-6)Gal
Summary of the method: as §1

Gal3S(b1-3)GalNAc = target: Gal3S(b1-3)GalNAc
Summary of the method: as §1

Gal3S(b1-3)GlcNAc = target: Gal3S(b1-3)GlcNAc
Summary of the method: as §1

[3] = target: Gal3S(b1-3)[Fuc(a1-4)]GlcNAc
Summary of the method: as §1

Gal3S(b1-4)Glc = target: Gal3S(b1-4)Glc
Summary of the method: as §1

Gal3S(b1-4)Glc6S = target: Gal3S(b1-4)Glc6S
Summary of the method: as §1

Gal3S(b1-4)GlcNAc = target: Gal3S(b1-4)GlcNAc
Summary of the method: as §1

[4] = target: Gal3S(b1-4)[Fuc(a1-3)]Glc6S
Summary of the method: as §1

[5] = target: Gal3S(b1-4)[Fuc(a1-3)]GlcNAc
Summary of the method: as §1

[6] = target: Gal3S(b1-4)[Fuc(a1-3)]GlcNAc6S
Summary of the method: as §1

Gal3S4S(b1-4)GlcNAc = target: Gal3S4S(b1-4)GlcNAc
Summary of the method: as §1

Gal3S6S(b1-4)GlcNAc = target: Gal3S6S(b1-4)GlcNAc
Summary of the method: as §1

Gal3S6S(b1-4)GlcNAc6S = target: Gal3S6S(b1-4)GlcNAc6S
Summary of the method: as §1

Gal4S(b1-4)GlcNAc = target: Gal4S(b1-4)GlcNAc
Summary of the method: as §1

Gal4S6S(b1-4)GlcNAc = target: Gal4S6S(b1-4)GlcNAc
Summary of the method: as §1

Gal6P(b1-4)GlcNAc = target: Gal6P(b1-4)GlcNAc
Summary of the method: as §1

Gal6S(b1-3)GlcNAc = target: Gal6S(b1-3)GlcNAc
Summary of the method: as §1

Gal6S(b1-3)GlcNAc6S = target: Gal6S(b1-3)GlcNAc6S
Summary of the method: as §1

Gal6S(b1-4)Glc = target: Gal6S(b1-4)Glc
Summary of the method: as §1

Gal6S(b1-4)Glc6S = target: Gal6S(b1-4)Glc6S
Summary of the method: as §1

Gal6S(b1-4)GlcNAc = target: Gal6S(b1-4)GlcNAc
Summary of the method: as §1

Gal6S(b1-4)GlcNAc6S = target: Gal6S(b1-4)GlcNAc6S
Summary of the method: as §1

GalNAc(a1-3)Gal = target: GalNAc(a1-3)Gal
Summary of the method: as §1

GalNAc(a1-3)GalNAc = target: GalNAc(a1-3)GalNAc
Summary of the method: as §1

[7] = target: GalNAc(a1-3)GalNAc(b1-3)Gal(a1-4)Gal(b1-4)Glc
Summary of the method: as §1

[8] = target: GalNAc(a1-3)GalNAc(b1-3)Gal(a1-4)Gal(b1-4)GlcNAc
Summary of the method: as §1

GalNAc(b1-3)Gal = target: GalNAc(b1-3)Gal
Summary of the method: as §1

[9] = target: GalNAc(b1-3)Gal(a1-4)Gal(b1-4)GlcNAc
Summary of the method: as §1

[10] = target: GalNAc(b1-3)Gal(a1-4)Gal(b1-4)GlcNAc(b1-3)Gal(b1-4)Glc
Summary of the method: as §1

[11] = target: GalNAc(b1-3)Gal(a1-6)Gal(b1-4)Glc
Summary of the method: as §1

GalNAc(b1-3)GalNAc = target: GalNAc(b1-3)GalNAc
Summary of the method: as §1

GalNAc(b1-3)GlcNAc = target: GalNAc(b1-3)GlcNAc
Summary of the method: as §1

GalNAc(b1-4)Gal(b1-4)Glc = target: GalNAc(b1-4)Gal(b1-4)Glc
Summary of the method: as §1

GalNAc(b1-4)GlcNAc = target: GalNAc(b1-4)GlcNAc
Summary of the method: as §1

[12] = target: GalNAc(b1-4)GlcNAc(b1-2)Man
Summary of the method: as §1

B1: FliC (Clostridium difficile) (protein)
chain: MRVNTNVSALIANNQMGRNVNGQSKSMEKLSSGVRIKRAADDAAGLAISEKMRAQIKGLDQAGRNVQDGISVVQTAEGSLEETGNILQRMRTLSLQSANEINNTEEREKIADELTQLKDEIERISSSTEFNGKKLLDGTSSTIRLQVGASYGTNVSGTSNNNNEIKIQLVNTASIMASAGITTASIGSMKAGGTTGTDAAKTMVSSLDAALKSLNSSRAKLGAQQNRLESTQNNLNNTLENVTAAESRIRDTDVASEMVNLSKMNILVQASQSMLAQANQQPQGVLQLLG
[1]
  glycan array binding signal (z-score): -0.23
[2]
  glycan array binding signal (z-score): -0.331
Gal(b1-4)GlcNAc6P
  glycan array binding signal (z-score): -0.843
Gal(b1-6)Gal
  glycan array binding signal (z-score): 0.447
Gal3S(b1-3)GalNAc
  glycan array binding signal (z-score): 0.317
Gal3S(b1-3)GlcNAc
  glycan array binding signal (z-score): -0.617
[3]
  glycan array binding signal (z-score): -0.856
Gal3S(b1-4)Glc
  glycan array binding signal (z-score): -0.03
Gal3S(b1-4)Glc6S
  glycan array binding signal (z-score): 0.135
Gal3S(b1-4)GlcNAc
  glycan array binding signal (z-score): -0.415
[4]
  glycan array binding signal (z-score): 0.415
[5]
  glycan array binding signal (z-score): -0.56
[6]
  glycan array binding signal (z-score): -0.377
Gal3S4S(b1-4)GlcNAc
  glycan array binding signal (z-score): -0.58
Gal3S6S(b1-4)GlcNAc
  glycan array binding signal (z-score): -0.233
Gal3S6S(b1-4)GlcNAc6S
  glycan array binding signal (z-score): -0.314
Gal4S(b1-4)GlcNAc
  glycan array binding signal (z-score): -0.21
Gal4S6S(b1-4)GlcNAc
  glycan array binding signal (z-score): -0.316
Gal6P(b1-4)GlcNAc
  glycan array binding signal (z-score): 0.321
Gal6S(b1-3)GlcNAc
  glycan array binding signal (z-score): -0.616
Gal6S(b1-3)GlcNAc6S
  glycan array binding signal (z-score): -0.654
Gal6S(b1-4)Glc
  glycan array binding signal (z-score): -0.452
Gal6S(b1-4)Glc6S
  glycan array binding signal (z-score): -0.24
Gal6S(b1-4)GlcNAc
  glycan array binding signal (z-score): 0.466
Gal6S(b1-4)GlcNAc6S
  glycan array binding signal (z-score): -0.398
GalNAc(a1-3)Gal
  glycan array binding signal (z-score): -0.317
GalNAc(a1-3)GalNAc
  glycan array binding signal (z-score): -0.286
[7]
  glycan array binding signal (z-score): -0.844
[8]
  glycan array binding signal (z-score): -0.681
GalNAc(b1-3)Gal
  glycan array binding signal (z-score): -0.175
[9]
  glycan array binding signal (z-score): -0.578
[10]
  glycan array binding signal (z-score): -0.375
[11]
  glycan array binding signal (z-score): -0.181
GalNAc(b1-3)GalNAc
  glycan array binding signal (z-score): -0.965
GalNAc(b1-3)GlcNAc
  glycan array binding signal (z-score): -0.485
GalNAc(b1-4)Gal(b1-4)Glc
  glycan array binding signal (z-score): 1.77
GalNAc(b1-4)GlcNAc
  glycan array binding signal (z-score): -0.879
[12]
  glycan array binding signal (z-score): -0.949

From the supplement of paper PMC8728848
